Measurements from patent US20250382386A1.
Results are given in words; binding and its absence hold for the method and conditions named. Some entries that bind do so weakly or less than the wild type.

The chains behind the UniProt entries cited, without tags or fusion partners. Residues count along the entry.
UniProt P37023, residues 22-503: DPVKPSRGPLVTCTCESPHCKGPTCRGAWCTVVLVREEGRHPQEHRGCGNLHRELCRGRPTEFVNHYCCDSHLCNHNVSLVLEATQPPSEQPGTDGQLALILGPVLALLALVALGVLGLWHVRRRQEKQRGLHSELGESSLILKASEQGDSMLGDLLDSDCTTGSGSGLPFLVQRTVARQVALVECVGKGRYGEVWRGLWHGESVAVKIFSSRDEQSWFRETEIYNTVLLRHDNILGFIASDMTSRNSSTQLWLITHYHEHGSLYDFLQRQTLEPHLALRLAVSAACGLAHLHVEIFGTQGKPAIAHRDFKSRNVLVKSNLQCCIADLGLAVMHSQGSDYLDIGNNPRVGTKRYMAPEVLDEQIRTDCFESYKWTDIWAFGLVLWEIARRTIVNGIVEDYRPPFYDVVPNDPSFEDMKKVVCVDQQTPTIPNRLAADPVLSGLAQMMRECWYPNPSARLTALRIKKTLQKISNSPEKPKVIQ

Columns and labels:
[1] = molecular target: human ALK-1 on cells (CHO-K1-hALK-1 cells; HUVEC; A172) (human) (UniProt P37023); assay: flow cytometry on CHO-K1-hALK1 cells, MFI of bound BEV813; BMP9 at 12 fixed concentrations (0 to 50.0 nM) competes with BEV813
[2] = molecular target: human ALK-1 on cells (CHO-K1-hALK-1 cells; HUVEC; A172) (human) (UniProt P37023); assay: flow cytometry competition on CHO-K1-hALK1 cells, BMP9 titrated, competitor BEV813

- binding [1]: binds
- binding [2]: binds
B1: BMP9 (Acro, GD2-H5211) (ligand, UniProt Q9UK05 320-429, looked up)
chain: SAGAGSHCQKTSLRVNFEDIGWDSWIIAPKEYEAYECKGGCFFPLADDVTPTKHAIVQTLVHLKFPTKVGKACCVPTKLSPISVLYKDDMGVPTLKYHYEGMSVAECGCR
